The list shows a part of the results.
Assays:
Assay in all cases: log2 fold change, soluble protein after heating vs DMSO (PISA); higher = thermal stabilisation; K562 cells, 10 uM, 30 min; active = over 0.2 and 3.5 SD of the protein, either way, in both replicates (recomputed)
bafetinib = compound: Cc1ccc(NC(=O)c2ccc(CN3CC[C@H](N(C)C)C3)c(C(F)(F)F)c2)cc1Nc1nccc(-c2cncnc2)n1 [bafetinib]
Outline: (§1)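 For each measurement, 10 μM compound was applied for 30 min to K562 cells at 2×10^6 cells/mL. Aliquots were heated for 3 min across 48°C-58°C, pooled, and extracted in PBS with 0.5% NP-40 at 4°C; the supernatant after 21,000xg for 90 min was soluble protein. This was quantified by TMTpro 16plex LC-MS/MS with channel sums equalised, and thermal stability was reported relative to control samples from duplicates, on a log2 fold-change scale.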

Amino acid sequences for entries named in this document (tags omitted). A change or cut given only in a name is not applied to a line headed by its entry.
UniProt Q63HQ0: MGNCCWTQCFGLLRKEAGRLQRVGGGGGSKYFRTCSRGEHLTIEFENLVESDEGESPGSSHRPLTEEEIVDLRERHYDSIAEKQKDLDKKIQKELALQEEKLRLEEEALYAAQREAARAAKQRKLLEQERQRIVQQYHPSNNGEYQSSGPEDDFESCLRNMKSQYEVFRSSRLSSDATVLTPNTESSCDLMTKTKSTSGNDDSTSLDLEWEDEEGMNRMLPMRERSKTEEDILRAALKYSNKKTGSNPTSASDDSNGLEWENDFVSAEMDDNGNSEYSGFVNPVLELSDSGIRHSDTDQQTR
UniProt P07741: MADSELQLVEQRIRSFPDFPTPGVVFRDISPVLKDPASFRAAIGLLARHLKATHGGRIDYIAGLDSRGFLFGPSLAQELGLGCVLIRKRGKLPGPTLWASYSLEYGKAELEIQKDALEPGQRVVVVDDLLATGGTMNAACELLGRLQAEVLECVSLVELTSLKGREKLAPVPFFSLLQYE
UniProt O95782: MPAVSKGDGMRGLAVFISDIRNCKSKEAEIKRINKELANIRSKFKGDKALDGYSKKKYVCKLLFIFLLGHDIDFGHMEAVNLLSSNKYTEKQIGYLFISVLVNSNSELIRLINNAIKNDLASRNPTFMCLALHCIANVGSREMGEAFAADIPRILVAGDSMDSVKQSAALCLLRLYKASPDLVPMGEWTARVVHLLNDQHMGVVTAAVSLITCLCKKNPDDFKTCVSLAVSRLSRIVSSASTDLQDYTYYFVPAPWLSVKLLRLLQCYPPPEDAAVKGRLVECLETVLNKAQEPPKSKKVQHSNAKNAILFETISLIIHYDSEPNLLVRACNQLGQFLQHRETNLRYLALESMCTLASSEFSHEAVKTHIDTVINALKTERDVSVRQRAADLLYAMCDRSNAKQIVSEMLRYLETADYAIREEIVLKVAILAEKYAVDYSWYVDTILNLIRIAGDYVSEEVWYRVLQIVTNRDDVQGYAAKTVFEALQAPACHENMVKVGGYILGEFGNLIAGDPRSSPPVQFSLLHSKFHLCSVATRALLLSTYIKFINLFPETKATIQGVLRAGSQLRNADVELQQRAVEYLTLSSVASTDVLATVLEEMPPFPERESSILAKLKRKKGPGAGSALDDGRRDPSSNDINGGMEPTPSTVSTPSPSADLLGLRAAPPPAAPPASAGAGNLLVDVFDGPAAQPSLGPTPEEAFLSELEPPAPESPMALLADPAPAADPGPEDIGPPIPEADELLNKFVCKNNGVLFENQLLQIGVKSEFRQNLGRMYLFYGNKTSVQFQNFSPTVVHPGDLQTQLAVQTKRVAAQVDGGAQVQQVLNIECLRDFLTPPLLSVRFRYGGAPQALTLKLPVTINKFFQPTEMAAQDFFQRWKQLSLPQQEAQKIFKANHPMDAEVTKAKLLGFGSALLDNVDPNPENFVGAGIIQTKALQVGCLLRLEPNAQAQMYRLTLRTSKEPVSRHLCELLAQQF
UniProt O15013: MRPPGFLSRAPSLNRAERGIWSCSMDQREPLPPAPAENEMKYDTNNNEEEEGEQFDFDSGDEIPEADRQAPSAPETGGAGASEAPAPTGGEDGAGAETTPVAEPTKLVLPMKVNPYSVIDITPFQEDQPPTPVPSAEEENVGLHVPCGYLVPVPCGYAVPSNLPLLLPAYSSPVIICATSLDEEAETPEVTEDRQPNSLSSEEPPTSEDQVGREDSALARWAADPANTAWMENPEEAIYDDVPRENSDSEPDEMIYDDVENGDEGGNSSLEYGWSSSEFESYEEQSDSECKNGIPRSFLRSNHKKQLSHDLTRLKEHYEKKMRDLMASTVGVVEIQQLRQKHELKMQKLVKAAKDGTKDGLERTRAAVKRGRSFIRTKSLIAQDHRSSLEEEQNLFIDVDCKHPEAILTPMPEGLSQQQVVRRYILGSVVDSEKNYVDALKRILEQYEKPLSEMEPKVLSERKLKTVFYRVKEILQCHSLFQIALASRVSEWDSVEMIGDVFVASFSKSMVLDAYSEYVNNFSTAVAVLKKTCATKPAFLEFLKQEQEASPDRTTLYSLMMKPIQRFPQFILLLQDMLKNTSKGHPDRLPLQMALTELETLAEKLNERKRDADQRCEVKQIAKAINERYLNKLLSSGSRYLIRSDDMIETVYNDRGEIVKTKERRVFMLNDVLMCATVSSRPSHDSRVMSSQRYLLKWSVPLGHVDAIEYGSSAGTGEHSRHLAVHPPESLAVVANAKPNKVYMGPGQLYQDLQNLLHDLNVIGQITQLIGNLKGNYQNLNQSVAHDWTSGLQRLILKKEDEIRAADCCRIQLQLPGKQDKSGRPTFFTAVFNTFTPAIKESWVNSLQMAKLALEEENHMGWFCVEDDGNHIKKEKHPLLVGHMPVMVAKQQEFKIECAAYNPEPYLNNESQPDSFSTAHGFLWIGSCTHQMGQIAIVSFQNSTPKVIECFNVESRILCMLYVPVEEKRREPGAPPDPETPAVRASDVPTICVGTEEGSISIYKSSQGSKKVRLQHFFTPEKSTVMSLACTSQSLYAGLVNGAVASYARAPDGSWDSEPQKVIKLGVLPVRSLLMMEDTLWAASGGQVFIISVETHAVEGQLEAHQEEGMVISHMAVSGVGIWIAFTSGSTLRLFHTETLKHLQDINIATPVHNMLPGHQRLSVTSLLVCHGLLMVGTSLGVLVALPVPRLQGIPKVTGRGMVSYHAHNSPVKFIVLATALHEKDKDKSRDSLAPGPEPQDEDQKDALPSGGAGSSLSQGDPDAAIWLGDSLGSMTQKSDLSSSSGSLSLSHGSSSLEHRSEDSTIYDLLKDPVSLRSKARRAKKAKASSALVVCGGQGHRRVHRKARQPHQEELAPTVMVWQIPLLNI
UniProt P39687: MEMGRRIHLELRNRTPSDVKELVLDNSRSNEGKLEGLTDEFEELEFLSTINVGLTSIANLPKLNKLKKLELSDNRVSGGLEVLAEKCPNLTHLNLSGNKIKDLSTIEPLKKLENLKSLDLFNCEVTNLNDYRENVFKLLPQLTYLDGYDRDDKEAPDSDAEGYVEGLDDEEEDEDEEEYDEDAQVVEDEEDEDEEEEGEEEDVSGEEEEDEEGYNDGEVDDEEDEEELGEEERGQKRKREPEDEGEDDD
UniProt P07355, whole entry, looked up: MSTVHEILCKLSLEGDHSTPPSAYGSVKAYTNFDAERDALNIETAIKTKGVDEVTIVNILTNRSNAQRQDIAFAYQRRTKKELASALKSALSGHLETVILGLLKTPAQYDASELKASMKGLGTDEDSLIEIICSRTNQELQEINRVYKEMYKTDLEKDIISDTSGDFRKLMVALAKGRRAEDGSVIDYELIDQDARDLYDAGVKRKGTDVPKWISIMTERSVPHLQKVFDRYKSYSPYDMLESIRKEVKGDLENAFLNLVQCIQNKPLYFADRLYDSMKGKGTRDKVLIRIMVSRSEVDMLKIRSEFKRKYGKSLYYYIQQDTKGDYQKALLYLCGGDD
UniProt P84085: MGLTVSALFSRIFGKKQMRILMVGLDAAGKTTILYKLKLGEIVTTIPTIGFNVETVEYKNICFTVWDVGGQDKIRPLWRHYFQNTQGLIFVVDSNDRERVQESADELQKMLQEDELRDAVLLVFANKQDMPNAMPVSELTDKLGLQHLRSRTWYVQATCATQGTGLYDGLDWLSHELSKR
UniProt P08758: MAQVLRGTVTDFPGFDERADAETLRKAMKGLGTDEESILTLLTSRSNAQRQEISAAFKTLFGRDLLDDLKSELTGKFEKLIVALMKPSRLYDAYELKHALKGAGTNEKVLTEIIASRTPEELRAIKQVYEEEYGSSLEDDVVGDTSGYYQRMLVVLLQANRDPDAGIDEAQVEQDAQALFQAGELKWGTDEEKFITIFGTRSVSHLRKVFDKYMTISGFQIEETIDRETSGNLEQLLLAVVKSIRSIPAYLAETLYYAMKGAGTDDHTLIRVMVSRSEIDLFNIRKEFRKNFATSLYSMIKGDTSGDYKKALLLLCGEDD
UniProt Q9BQD7: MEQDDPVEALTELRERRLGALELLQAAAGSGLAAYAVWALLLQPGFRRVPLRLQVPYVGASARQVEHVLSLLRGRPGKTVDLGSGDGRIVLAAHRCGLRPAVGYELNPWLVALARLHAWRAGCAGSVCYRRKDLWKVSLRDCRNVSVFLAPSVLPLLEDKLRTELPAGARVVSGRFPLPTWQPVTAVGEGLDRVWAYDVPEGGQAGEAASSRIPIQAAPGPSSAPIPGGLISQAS
UniProt Q8N6T3: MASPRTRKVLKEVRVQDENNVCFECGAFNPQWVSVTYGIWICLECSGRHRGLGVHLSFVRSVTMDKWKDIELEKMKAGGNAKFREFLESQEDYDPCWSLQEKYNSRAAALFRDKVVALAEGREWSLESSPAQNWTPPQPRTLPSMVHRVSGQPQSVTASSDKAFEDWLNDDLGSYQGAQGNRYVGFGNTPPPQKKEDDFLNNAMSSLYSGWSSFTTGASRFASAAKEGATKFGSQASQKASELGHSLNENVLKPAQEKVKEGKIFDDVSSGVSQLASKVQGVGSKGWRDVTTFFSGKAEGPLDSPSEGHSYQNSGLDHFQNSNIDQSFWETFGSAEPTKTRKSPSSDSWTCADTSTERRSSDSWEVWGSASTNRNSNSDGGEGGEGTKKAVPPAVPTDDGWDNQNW
UniProt Q9H8Y5: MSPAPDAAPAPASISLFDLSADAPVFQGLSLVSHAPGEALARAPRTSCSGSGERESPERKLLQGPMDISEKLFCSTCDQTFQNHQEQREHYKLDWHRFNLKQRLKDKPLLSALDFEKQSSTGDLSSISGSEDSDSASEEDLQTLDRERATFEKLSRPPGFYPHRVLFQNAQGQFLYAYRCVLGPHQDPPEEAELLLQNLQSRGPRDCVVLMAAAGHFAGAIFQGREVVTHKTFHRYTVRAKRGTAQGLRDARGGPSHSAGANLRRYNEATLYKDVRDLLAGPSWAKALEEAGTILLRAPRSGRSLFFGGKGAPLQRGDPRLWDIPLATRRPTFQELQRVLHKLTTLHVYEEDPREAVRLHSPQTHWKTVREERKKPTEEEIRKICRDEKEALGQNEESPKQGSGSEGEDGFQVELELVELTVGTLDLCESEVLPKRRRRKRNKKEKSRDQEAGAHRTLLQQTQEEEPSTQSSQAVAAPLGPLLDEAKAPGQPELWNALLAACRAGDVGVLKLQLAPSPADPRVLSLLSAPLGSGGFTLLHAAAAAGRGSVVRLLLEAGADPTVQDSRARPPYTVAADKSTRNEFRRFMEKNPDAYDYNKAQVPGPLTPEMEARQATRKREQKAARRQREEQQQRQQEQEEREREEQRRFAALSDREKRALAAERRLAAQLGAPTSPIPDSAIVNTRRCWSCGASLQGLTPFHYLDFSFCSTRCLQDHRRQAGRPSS
UniProt P78540: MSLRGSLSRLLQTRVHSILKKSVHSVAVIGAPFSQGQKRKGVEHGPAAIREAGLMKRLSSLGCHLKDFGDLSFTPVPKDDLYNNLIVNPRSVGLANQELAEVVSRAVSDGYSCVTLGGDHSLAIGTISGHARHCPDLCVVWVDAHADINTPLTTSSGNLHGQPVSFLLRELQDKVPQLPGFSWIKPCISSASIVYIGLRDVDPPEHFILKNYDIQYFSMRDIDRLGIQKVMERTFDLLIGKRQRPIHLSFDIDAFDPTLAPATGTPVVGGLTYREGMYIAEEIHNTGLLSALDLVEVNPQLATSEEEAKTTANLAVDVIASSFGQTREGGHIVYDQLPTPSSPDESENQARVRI
UniProt Q9BUR5: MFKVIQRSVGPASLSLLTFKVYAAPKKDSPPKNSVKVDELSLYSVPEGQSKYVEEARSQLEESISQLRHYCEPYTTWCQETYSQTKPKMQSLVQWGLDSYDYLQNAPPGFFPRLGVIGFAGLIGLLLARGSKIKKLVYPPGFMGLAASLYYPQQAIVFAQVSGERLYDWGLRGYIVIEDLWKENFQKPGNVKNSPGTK
UniProt Q6UXV4: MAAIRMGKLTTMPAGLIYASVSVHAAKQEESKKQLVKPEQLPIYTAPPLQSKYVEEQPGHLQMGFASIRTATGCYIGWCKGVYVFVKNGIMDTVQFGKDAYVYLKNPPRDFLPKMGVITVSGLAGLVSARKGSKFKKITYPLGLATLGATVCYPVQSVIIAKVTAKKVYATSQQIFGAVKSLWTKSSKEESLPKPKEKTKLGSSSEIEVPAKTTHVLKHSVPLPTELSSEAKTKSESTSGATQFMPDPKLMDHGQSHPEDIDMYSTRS
UniProt Q9BXS5: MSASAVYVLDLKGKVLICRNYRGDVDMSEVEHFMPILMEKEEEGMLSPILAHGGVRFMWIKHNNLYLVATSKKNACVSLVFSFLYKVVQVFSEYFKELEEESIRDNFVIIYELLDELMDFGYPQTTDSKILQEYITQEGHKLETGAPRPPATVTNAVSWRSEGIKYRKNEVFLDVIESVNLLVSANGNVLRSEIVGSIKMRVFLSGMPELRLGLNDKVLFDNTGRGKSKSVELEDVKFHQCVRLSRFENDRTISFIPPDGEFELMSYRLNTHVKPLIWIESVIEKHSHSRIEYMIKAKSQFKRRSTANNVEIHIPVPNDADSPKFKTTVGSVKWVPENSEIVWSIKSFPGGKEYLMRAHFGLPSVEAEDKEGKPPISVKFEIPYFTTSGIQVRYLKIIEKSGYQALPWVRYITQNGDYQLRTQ

[1] = compound: Cc1cccc(CC(=O)N2CCc3c2ccc(-c2cn(C)c4ncnc(N)c24)c3F)n1
Outline: as §1

nilotinib = compound: Cc1cn(-c2cc(NC(=O)c3ccc(C)c(Nc4nccc(-c5cccnc5)n4)c3)cc(C(F)(F)F)c2)cn1 [nilotinib]
Outline: as §1

[2] = compound: Cc1nc(Nc2n[nH]c3c2CN(C(=O)N[C@H](CN(C)C)c2ccccc2)C3(C)C)c2sccc2n1
Outline: as §1

dasatinib = compound: Cc1nc(Nc2ncc(C(=O)Nc3c(C)cccc3Cl)s2)cc(N2CCN(CCO)CC2)n1 [dasatinib]
Outline: as §1

[3] = compound: Cc1ncc(-c2ccnc(Nc3ccc(S(C)(=O)=O)cc3)n2)n1C(C)C
Outline: as §1

[4] = compound: Cn1cc(-c2ccc3c(c2)CCN3C(=O)Cc2cccc(C(F)(F)F)c2)c2c(N)ncnc21
Outline: as §1

[5] = compound: Cn1cc(-c2ccc3nnc(C(F)(F)c4ccc5ncccc5c4)n3n2)cn1
Outline: as §1

tipifarnib = compound: Cn1cncc1[C@@](N)(c1ccc(Cl)cc1)c1ccc2c(c1)c(-c1cccc(Cl)c1)cc(=O)n2C [tipifarnib]
Outline: as §1

mubritinib = compound: FC(F)(F)c1ccc(/C=C/c2nc(COc3ccc(CCCCn4ccnn4)cc3)co2)cc1 [mubritinib]
Outline: as §1

Measured: log2 fold change

AP1AR (UniProt Q63HQ0)
inactive: bafetinib -0.031 | [1] -0.107 | nilotinib 0.002 | [2] -0.054 | dasatinib 0.058 | [3] -0.015 | [4] -0.041 | [5] 0.02 | tipifarnib 0.015 | mubritinib 0.086

AP2S1 (UniProt P53680)
inactive: bafetinib 0.023 | [1] -0.01 | nilotinib -0.019 | [2] -0.009 | dasatinib -0.011 | [3] -0.082 | [4] -0.057 | [5] 0.004 | tipifarnib -0.04 | mubritinib -0.001

APRT (UniProt P07741)
inactive: bafetinib -0.045 | [1] -0.061 | nilotinib -0.019 | [2] 0.01 | dasatinib 0.051 | [3] -0.017 | [4] 0.027 | [5] 0.042 | tipifarnib -0.011 | mubritinib 0.009

AP2A1 (UniProt O95782)
inactive: bafetinib 0.052 | [1] 0.024 | nilotinib -0.008 | [2] -0.008 | dasatinib 0.045 | [3] -0.079 | [4] -0.007 | [5] -0.066 | tipifarnib -0.051 | mubritinib -0.011

ARHGEF10 (UniProt O15013)
inactive: bafetinib 0.352

ANP32A (UniProt P39687)
inactive: bafetinib 0.042 | [1] 0.085 | nilotinib 0.023 | [2] -0.03 | dasatinib 0.022 | [3] -0.019 | [4] 0.049 | [5] -0.029 | tipifarnib -0.04 | mubritinib 0.024

2 records picked at random from the list so far:
ARHGEF10 (UniProt O15013)
inactive: bafetinib 0.352

AP2A1 (UniProt O95782)
inactive: bafetinib 0.052 | [1] 0.024 | nilotinib -0.008 | [2] -0.008 | dasatinib 0.045 | [3] -0.079 | [4] -0.007 | [5] -0.066 | tipifarnib -0.051 | mubritinib -0.011

Following part.

ANXA2 isoform 2 (UniProt P07355)
inactive: bafetinib 0.019 | [1] -0.004 | nilotinib 0.031 | [2] -0.003 | dasatinib -0.038 | [3] 0.03 | [4] 0.036 | [5] -0.022 | tipifarnib -0.036 | mubritinib 0.002

ARF5 (UniProt P84085)
inactive: bafetinib -0.011 | [1] -0.03 | nilotinib 0.014 | [2] 0.01 | dasatinib 0.01 | [3] 0.029 | [4] 0.004 | [5] 0.008 | tipifarnib -0.002 | mubritinib 0.015

ANXA5 (UniProt P08758)
inactive: bafetinib 0.019 | [1] 0.058 | nilotinib -0.015 | [2] -0.052 | dasatinib -0.079 | [3] 0.006 | [4] 0.017 | [5] 0.025 | tipifarnib -0.061 | mubritinib 0.009

ANTKMT (UniProt Q9BQD7)
inactive: bafetinib 0.105 | [1] 0.249 | nilotinib 0.031 | [2] -0.099 | dasatinib 0.032 | [3] 0.015 | [4] 0.03 | [5] 0.096

ARFGAP1 (UniProt Q8N6T3)
inactive: bafetinib -0.041 | [1] -0.009 | nilotinib -0.015 | [2] -0.193 | dasatinib -0.097 | [3] -0.004 | [4] -0.003 | [5] 0.008 | tipifarnib -0.036 | mubritinib -0.022

ANKZF1 (UniProt Q9H8Y5)
inactive: bafetinib 0.104 | [1] -0.047 | nilotinib -0.151 | [2] -0.29 | dasatinib -0.04 | [3] 0.018 | [4] -0.005 | [5] -0.126 | tipifarnib 0.026 | mubritinib -0.074

ARG2 (UniProt P78540)
inactive: bafetinib -0.038 | [1] -0.046 | nilotinib -0.024 | [2] -0.009 | dasatinib 0.001 | [3] -0.015 | [4] 0.026 | [5] 0.014 | tipifarnib 0.024 | mubritinib 0.042

APOO (UniProt Q9BUR5)
inactive: bafetinib -0.113 | [1] 0.018 | nilotinib -0.001 | [2] 0.021 | dasatinib 0.036 | [3] -0.01 | [4] 0.023 | [5] 0.075 | tipifarnib 0.002 | mubritinib 0.046

APOOL (UniProt Q6UXV4)
inactive: bafetinib -0.051 | [1] -0.015 | nilotinib 0.019 | [2] 0 | dasatinib 0.019 | [3] 0.003 | [4] -0.011 | [5] 0.016 | tipifarnib 0.009 | mubritinib 0.049

AP1M1 (UniProt Q9BXS5)
inactive: bafetinib -0.011 | [1] 0.014 | nilotinib -0.042 | [2] -0.062 | dasatinib 0.011 | [3] 0.025 | [4] -0.035 | [5] -0.017 | tipifarnib -0.01 | mubritinib 0.004

— the supplement of paper PMC10849652
